Measurements reported in PubChem BioAssay AID1159584 (Peter MacCallum Cancer Centre, 2016).
The whole screen tested about 18,000 reagents; below is a random part of them. Reagents against one gene are numbered here. The record does not give: the amount of reagent, the time to read-out.

Aim: 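Knock-downs that harm CDH1-null cells more than parental MCF10A cells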 (primary screen)
System: human MCF10A breast epithelial cells, parental and CDH1-null
Reagent: siRNA against human genes
Measurement: 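Cell viability by CellTiter-Glo ATP luminescence, each line scaled to the mean of mock wells across plates, then CDH1-null over parental ratio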
Scale: CDH1-null / parental viability ratio: higher = CDH1-null cells survive relatively better than parental; CDH1-null viability vs mock: higher = more viable CDH1-null cells; parental viability vs mock: higher = more viable parental cells

The first 3 records, ahead of the listing:
| Gene | reagent | CDH1-null / parental viability ratio | CDH1-null viability vs mock (fraction of mock) | parental viability vs mock (fraction of mock) |
| --- | --- | --- | --- | --- |
| DSPP | 1 | 0.94 | 0.68 | 0.72 |
| MAP3K2 | 1 | 0.99 | 0.92 | 0.93 |
| SCGB2A2 | 1 | 0.8 | 0.92 | 1.15 |

Results, repeating the preview:
| Gene | reagent | CDH1-null / parental viability ratio | CDH1-null viability vs mock (fraction of mock) | parental viability vs mock (fraction of mock) |
| --- | --- | --- | --- | --- |
| DSPP | 1 | 0.94 | 0.68 | 0.72 |
| MAP3K2 | 1 | 0.99 | 0.92 | 0.93 |
| SCGB2A2 | 1 | 0.8 | 0.92 | 1.15 |
| HS6ST3 | 1 | 0.93 | 1.01 | 1.09 |
| UQCRH | 1 | 0.98 | 0.92 | 0.94 |
| SAMD3 | 1 | 0.93 | 0.8 | 0.86 |
| ZNF281 | 1 | 1.1 | 0.86 | 0.78 |
| PAIP2 | 1 | 0.9 | 0.76 | 0.84 |
| BIN2 | 1 | 1 | 1.04 | 1.04 |
| MIOX | 1 | 1.38 | 0.62 | 0.45 |
| RPL7L1 | 1 | 1.09 | 0.62 | 0.57 |
| KLK9 | 1 | 1.06 | 0.84 | 0.79 |
| NT5C | 1 | 1.57 | 0.85 | 0.54 |
| BCL7A | 1 | 1 | 1.02 | 1.02 |
| POLR3D | 1 | 1.02 | 0.9 | 0.88 |
| BIRC5 | 1 | 1.15 | 0.71 | 0.62 |
| SNX3 | 1 | 1.03 | 1.06 | 1.03 |
| KCNAB2 | 1 | 1.18 | 0.98 | 0.83 |
| INMT | 1 | 0.84 | 0.42 | 0.5 |
| ZNF652 | 1 | 0.91 | 0.72 | 0.79 |
| CT47A9 | 1 | 0.9 | 0.57 | 0.63 |
| PRM3 | 1 | 0.85 | 0.62 | 0.73 |
| RAB39B | 1 | 0.98 | 0.9 | 0.92 |
| PTPN3 | 1 | 1.28 | 0.97 | 0.76 |
| PRKAG3 | 1 | 1.25 | 0.94 | 0.75 |
| ATP2C2 | 1 | 0.96 | 1.06 | 1.1 |
| RANGAP1 | 1 | 1.01 | 0.92 | 0.91 |
| ELMOD1 | 1 | 1.01 | 0.93 | 0.92 |
| ELMOD1 | 2 | 1.05 | 0.68 | 0.65 |
